Data on 3 substances can be found in patent publication US20130324409A1.

By UniProt entry, the sequences of proteins in these tests, tags left out. Where a name states a change or a piece, a line headed by the entry shows the natural chain unless it says otherwise. Residues count along the entry.
UniProt Q9CAJ0, residues 23-511: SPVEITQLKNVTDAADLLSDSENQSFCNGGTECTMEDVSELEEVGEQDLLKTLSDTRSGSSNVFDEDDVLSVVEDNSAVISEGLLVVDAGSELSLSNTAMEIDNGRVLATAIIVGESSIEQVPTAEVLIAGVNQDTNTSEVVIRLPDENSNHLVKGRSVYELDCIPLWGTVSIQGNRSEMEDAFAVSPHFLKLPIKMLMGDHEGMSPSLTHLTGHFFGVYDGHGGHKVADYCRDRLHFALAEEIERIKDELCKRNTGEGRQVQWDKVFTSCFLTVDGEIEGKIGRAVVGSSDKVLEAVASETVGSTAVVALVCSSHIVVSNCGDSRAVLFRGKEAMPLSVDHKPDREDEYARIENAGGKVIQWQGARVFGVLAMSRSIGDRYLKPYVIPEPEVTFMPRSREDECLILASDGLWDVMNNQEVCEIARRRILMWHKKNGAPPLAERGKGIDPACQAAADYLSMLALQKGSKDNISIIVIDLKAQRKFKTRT
UniProt P49597: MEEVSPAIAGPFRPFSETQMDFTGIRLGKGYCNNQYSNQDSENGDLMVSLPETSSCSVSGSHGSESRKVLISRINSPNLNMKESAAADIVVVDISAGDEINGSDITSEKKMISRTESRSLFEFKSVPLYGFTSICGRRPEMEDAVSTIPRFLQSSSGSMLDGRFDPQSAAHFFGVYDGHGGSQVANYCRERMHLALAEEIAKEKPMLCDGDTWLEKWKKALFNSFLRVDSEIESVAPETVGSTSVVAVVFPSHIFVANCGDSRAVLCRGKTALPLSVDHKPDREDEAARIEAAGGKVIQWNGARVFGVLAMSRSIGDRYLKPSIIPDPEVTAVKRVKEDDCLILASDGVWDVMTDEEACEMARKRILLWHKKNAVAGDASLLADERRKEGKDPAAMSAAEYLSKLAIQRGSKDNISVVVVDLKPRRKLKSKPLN
UniProt O04719: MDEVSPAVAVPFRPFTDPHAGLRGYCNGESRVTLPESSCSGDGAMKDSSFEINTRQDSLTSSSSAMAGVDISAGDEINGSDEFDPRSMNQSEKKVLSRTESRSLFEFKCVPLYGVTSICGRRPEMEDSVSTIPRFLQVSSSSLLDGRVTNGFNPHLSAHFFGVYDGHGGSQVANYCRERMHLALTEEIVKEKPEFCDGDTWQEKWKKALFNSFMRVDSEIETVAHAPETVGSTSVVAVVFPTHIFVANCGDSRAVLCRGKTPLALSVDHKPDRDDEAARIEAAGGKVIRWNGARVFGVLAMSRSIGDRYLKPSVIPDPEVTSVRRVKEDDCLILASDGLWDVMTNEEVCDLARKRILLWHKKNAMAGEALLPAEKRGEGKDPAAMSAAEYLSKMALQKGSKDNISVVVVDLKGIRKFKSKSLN
UniProt O49686: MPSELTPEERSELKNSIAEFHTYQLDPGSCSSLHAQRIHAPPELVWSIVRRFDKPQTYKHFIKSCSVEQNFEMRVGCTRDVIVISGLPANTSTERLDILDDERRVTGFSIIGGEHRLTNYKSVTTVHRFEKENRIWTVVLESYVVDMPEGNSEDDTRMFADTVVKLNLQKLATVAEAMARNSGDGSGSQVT

Results are given in words; binding and its absence hold for the method and conditions named. For part of these data: In cells and extracts the contact can be indirect. Some entries that bind do so weakly or less than the wild type.

Assay [1] concerns the target AD-HAB1 fusion protein (Arabidopsis) (UniProt Q9CAJ0). In words: yeast two-hybrid, X-gal stain, with ABA.
A further assay addresses GST-HAB1 (Arabidopsis) (UniProt Q9CAJ0). The assay can be described thus: His-tag pull-down, purified 6×His-PYR1 and GST-HAB1, SDS-PAGE.
Another assay has as its target GST-ABI1 (UniProt P49597). The assay can be described thus: His-tag pull-down, purified 6×His-PYR1 and E. coli lysate holding GST-ABI1, SDS-PAGE.
The target of the next assay is GST-ABI2 (UniProt O04719). In words: His-tag pull-down, purified 6×His-PYR1 and E. coli lysate holding GST-ABI2, SDS-PAGE.
Assay [2] addresses AD-HAB1 fusion protein (Arabidopsis) (UniProt Q9CAJ0). The assay can be described thus: yeast two-hybrid, X-gal stain, 10 µM pyrabactin.
The target is the same in assay [3]. The assay can be described thus: yeast two-hybrid, X-gal stain, 10 µM (+)-ABA or 10 µM pyrabactin.

Turning to “PYR1^R157H (yeast two-hybrid construct) (from UniProt O49686 1-191) (receptor)”, the binding entry in assay [1] is listed as “binds”.
With “6×His-PYR1 (from UniProt O49686 1-191) (receptor)”, the binding entry with GST-HAB1 (Arabidopsis), in the assay with GST-ABI1 and with GST-ABI2 was “binds” throughout.
As to “BD-PYR1 fusion protein (from UniProt O49686 1-191) (receptor)”, the binding result in assay [2] and in assay [3] was “binds” each time.
